In all, about 31,000 sequences went through this assay and about 1,400 (4.5%) were called active.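 Rule for the calls: active = median seed-adjusted z-score above 1 or below -1; inactive = the rest.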 The list shows a part of the results.
Test: Novel Modifiers of Survival Motor Neuron (SMN) Protein: Gene Identification via Genome-wide siRNA Screen;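 note: luminescence tracks full-length SMN protein made from the SMN2 reporter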
Conditions: HEK293T SMN2-luciferase reporter, siRNA knockdown, 72 h; actives lie on both sides
Outline: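 siRNA screen, 10418 genes ×3 siRNAs; 1 pmol/well, lipid reverse transfection into HEK293T SMN2-luc reporter line. 72 h, 37 °C, 5% CO2; ONE-Glo readout. Data: neg-ctrl normalized, log10, MAD; hit = MAD >1.0 or < -1.0.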

Sequence	median seed-adjusted z-score
CCACUACGGUGUUCAUGCATT against PPARD	inactive: 0.0283
CUUUGGACAUGUUCCAGAATT against ALOX12	inactive: -0.247
ACCCAGAUCUGCAAAUACATT against KLK10	inactive: -0.902
AUAUAUUGCUUGGAGAUGATT against STK16	inactive: 0.113
GAGCAACUGUGAUGAGGAATT against EMID2	inactive: 0.0465
GACUCAGACCACCACCAGATT against ZFP64	inactive: -0.659
GGAAUAUCCCUGGACAACATT against CASP3	inactive: -0.874
GACUUGCCUUUGAACUACATT against SCN5A	inactive: -0.167
CCAUCGUCAACAUACGGAATT against TRIT1	inactive: 0.794
CCAGUCCUGAGUAUCCCAATT against CDCP2	inactive: 0.0708
GCAUCUCGCUUACCCUCAATT against ATXN1	inactive: -0.024
CCUCAACUCUUAUAUUACATT against ZNF595	inactive: 0.102
GCACCAGCGAGAGAAGAGATT against PLA2G3	inactive: 0.543
GGCUAUAACCUCUCUAUCATT against SLC2A11	inactive: 0
CACGCUCACAGAGAAGUUUTT against MEGF6	inactive: 0
CAUCCAGCUAUUUAUGAUATT against SAAL1	inactive: 0.00224
CCACCGUGGAAGGACAGAATT against SHARPIN	inactive: -0.00778
CAGUGAGACAAUUAUGAAATT against MTHFD2	inactive: -0.146
GCAACAAGACGGAAUUGGATT against SFRS3	active: 2.74
GGUCUAUACAGAGUCAAUATT against MRCL3	inactive: -0.00909
GCUCUUUCCAAACUAGAAATT against KCNT1	inactive: 0.379
GCAUAUGCUUGACAGCUUUTT against STK36	inactive: -0.0489

Sequence	median seed-adjusted z-score
GGAAUAAUUCAGUACUUAATT against ERAP2	inactive: 0.081
CGAUAACGACAGUAAAUCATT against CACNA2D1	inactive: -0.541
GCUUAUUUAUGUAUCAAUATT against ADRB1	active: 1.06
AGAUCUCCCUUAAGAGCAATT against E2F1	inactive: -0.211
GGCUAACAUUAGAACACUUTT against MED6	active: -2.15
CCAGAUUACUAUGUCGGAATT against IPO7	inactive: -0.143
CCACAUUUGAGUUUGAGAATT against PRSS21	inactive: -0.306
GCACCAUCGUCCUUGAACATT against DUOX1	active: -1.09
GCAUCAUUGAGCUCACAGATT against MEX3B	inactive: -0.0576
GGAUUAGGAGCUUUCGUUATT against TUBD1	inactive: -0.00491
GGAGCAGGGUUCAUGCAUATT against SLC39A2	inactive: 0.0602
ACUCAUUAAACUACUCAAATT against ANAPC11	inactive: -0.581
CCCAAGACGUGUGAUAUCATT against UBE2M	inactive: 0.0974
CCAUCGAGCUCGUGAAGAATT against ACVR2B	inactive: 0.824
GAUAAGAUUUGUUUAGUGATT against BLMH	inactive: -0.156
UGAACGCAGUCAUCCGGAATT against MAPK15	inactive: 0.0724
AAUUCAAGCUAUGAAGAUATT against ACO2	active: -1.57
UGGGACUGGUUGACACAAATT against THA1P	inactive: -0.509
GGAUAUCUUCUAUGAUCUATT against SMAD7	inactive: -0.25
GACUUGACAGGGAACGGAATT against MICA	inactive: -0.0635
GCAGAUUAAUUCCAACCAATT against IRF1	inactive: 0.831
GCAGCGAUGUACAAUCCCATT against OPN5	inactive: 0.483

Sequence	median seed-adjusted z-score
GCUUCUAAGGAGUACUUAATT against GZF1	inactive: 0.286
GGAUUCUUCUCUAAUACUUTT against MTM1	inactive: 0.406
GCUUGCCCUUAAUCAAAGATT against CYP2J2	inactive: 0.00659
GAACGAGUCCUUUACUACATT against GFM1	inactive: -0.0641
GCAUUAUGAUUACAAUAGUTT against HTR1F	inactive: -0.127
CUCCUUCCCGGAUGAUUUATT against KLF17	inactive: -0.131
GACAUUUCUUGCAUGUUAATT against SPO11	inactive: 0.475
GGCUCUACCAGUGUACUAATT against PAPPA	inactive: -0.0169
CAACGAGUUUGGGACUGUUTT against PPM2C	inactive: 0.518
GCUGUCUCCUGAACAGGGATT against TRAPPC4	inactive: 0
CCUCAUUGUUUCGAAAUCATT against PRKD1	inactive: -0.323
GGAUGGAAAUCAAGUUCGATT against NSUN4	inactive: -0.491
GAAGGUCCUCUGUUACUAUTT against SMARCAD1	inactive: -0.198
AGUCUGUUGGUGCACAAAATT against MDM2	inactive: 0.258
GAGUGGAAGUUGACCUUGUTT against RNF215	inactive: -0.889
CCACCUUCAAUAUCGAGUUTT against DRD3	inactive: 0.0447
AGAGAGUUGUUAAUGAGGUTT against DUS2L	inactive: -0.705
CAUUCGAUUCAGAUCAAAATT against LAMA3	inactive: 0.534
GGCAUUGCAGCAUCUCAAATT against GCKR	inactive: 0.454
GGGCUAUGACUAUAGCUAUTT against TYR	inactive: 0.131
CCCAGAUCGUGACCCAGUATT against GIPR	inactive: 0.475
GGAUCCGGCUAAAGAAAUATT against IMPDH2	inactive: 0.119

Sequence	median seed-adjusted z-score
CCCUGAUGGUAAUUGCGUUTT against LRP1B	inactive: -0.0589
UGAUGAAGGUUGCACUCCATT against TAF6L	inactive: 0
GCUGAGGACUUUAAUAUCUTT against GPR175	inactive: 0.245
CAUCAAUUCUUAGUGCAAATT against SERPINB10	inactive: 0.00387
GGAAGACCUACUUUACCGATT against FREQ	inactive: -0.353
GGACUCAUGCAUCAUGAAATT against GPR37L1	inactive: -0.0348
CAACUAAUAGAAUAUGGAATT against ATG4C	inactive: -0.414
GAGUGCACGUGAUAGAGCATT against TBX22	inactive: 0.0269
CCUCUAACCUUAGAUGAAATT against GTF2E2	active: -1.32
GUAAGCAUUUUAAUUCCAATT against CLCA3	inactive: 0.424
GGUGAUGAAAGAAUUGAAATT against PAK2	inactive: 0.122
AGAUGAUCGCUGAGUUCAATT against TNNC2	inactive: -0.773
UGAUGAUCAUCACUGAGUATT against EPHA2	inactive: 0.0948
GCACUUGACAAUGAUCAAATT against S1PR3	inactive: -0.0931
CGUGAGUAGCGGUGAUGUATT against AAK1	inactive: 0.27
GGUGCUACAUCAACUCAGATT against CNKSR3	inactive: 0
GGAUGACUCCAGAUUCUAUTT against PIGA	inactive: -0.0514
CGCCUGGUGGUGUACGUUUTT against ATG4D	inactive: -0.216
CCCACAACAUCAUCCAAGATT against CLDN4	inactive: -0.0241
GAGUUGAAAAUGACAAUGATT against CLSTN1	inactive: 0.0811
GUCUUCUCCUUUUACCUCATT against NAPSA	inactive: -0.336
GCUCAGGACUGUUGCCUCATT against CCL21	inactive: -0.227

Some of the entries so far, as labelled records:
GUAAGCAUUUUAAUUCCAATT against CLCA3
  median seed-adjusted z-score: inactive: 0.424
GGUGAUGAAAGAAUUGAAATT against PAK2
  median seed-adjusted z-score: inactive: 0.122
AGAUGAUCGCUGAGUUCAATT against TNNC2
  median seed-adjusted z-score: inactive: -0.773

Next part

Sequence	median seed-adjusted z-score
AGAAAGCUUUGGGCAAAUATT against EEF1B2	inactive: 0.388
GCCUGAUACAAAAUCAACATT against TRPC5	active: -1.14
CCACCUCAGCAUUACCGUUTT against RUNX1T1	inactive: 0.181
GCACAGAGGACAUACGGAUTT against BSPRY	inactive: -0.399
GACUAUAAGCUGCGAAUUATT against MFN2	inactive: -0.0968
UCAUCUUCGUUAGUGCAGATT against NXN	inactive: 0.175
CCCUCAAGGUACAAACAUUTT against POLD1	inactive: -0.715
CCCUUUCAUUUGCGACUGUTT against SLIT1	inactive: 0.12
GCACCUAUCUUGACCUGCUTT against CTSC	inactive: 0
CCACCCUAGUUAGACAUCATT against ZNF419	inactive: 0.0405
AGUUCUACAUGCCGGAUGATT against GGTLC1	inactive: -0.298
CCCUAUGAGUGUCACGAUUTT against ZNF135	inactive: 0.038
GGAUCUCCCUACUACGAUATT against RND1	inactive: -0.393
GGAGAACACGAGGCAGGAATT against ZFYVE19	inactive: 0.0704
GCUACAACUGGAUAAGGAATT against FTSJ1	inactive: 0.0774
CUUUAAUUAUGACCCACAATT against ZNF566	inactive: 0.0702
GCUAGAUGUUUACAACGGATT against ACPP	inactive: 0.311
GAUCAACGGUUCACGGGAATT against PNLIPRP3	inactive: -0.287
CCUUGAUAGUUCAAUAUGATT against CLGN	inactive: 0.18

Another view of some results above.
Sequence | median seed-adjusted z-score
GCUGUCUCCUGAACAGGGATT against TRAPPC4 | inactive: 0
CCUCAUUGUUUCGAAAUCATT against PRKD1 | inactive: -0.323
GGAUGGAAAUCAAGUUCGATT against NSUN4 | inactive: -0.491
GAAGGUCCUCUGUUACUAUTT against SMARCAD1 | inactive: -0.198

From PubChem BioAssay AID1347426 (Functional Genomics Laboratory (NCATS/FGL), 2020)
